Laboratory results taken from article PMC10903463.
Where a chain is given by its changes, count along the chain named. No constants are given. Whether binding was seen depends on the method and setting. Binding seen in cells or lysates may run through a third protein. A yes stands for co-enrichment or nearness to the bait. Other partners may have been found. Where a sequence is shown, tags or fusion partners need not be part of it.

Sequences of proteins named here, by UniProt entry; tags and fusion partners are left off. A change or cut given only in a name is not applied to a line headed by its entry. A line that says so, or that is headed by a name, gives the form on record, which may keep a tag or linker.
UniProt P0DMW0: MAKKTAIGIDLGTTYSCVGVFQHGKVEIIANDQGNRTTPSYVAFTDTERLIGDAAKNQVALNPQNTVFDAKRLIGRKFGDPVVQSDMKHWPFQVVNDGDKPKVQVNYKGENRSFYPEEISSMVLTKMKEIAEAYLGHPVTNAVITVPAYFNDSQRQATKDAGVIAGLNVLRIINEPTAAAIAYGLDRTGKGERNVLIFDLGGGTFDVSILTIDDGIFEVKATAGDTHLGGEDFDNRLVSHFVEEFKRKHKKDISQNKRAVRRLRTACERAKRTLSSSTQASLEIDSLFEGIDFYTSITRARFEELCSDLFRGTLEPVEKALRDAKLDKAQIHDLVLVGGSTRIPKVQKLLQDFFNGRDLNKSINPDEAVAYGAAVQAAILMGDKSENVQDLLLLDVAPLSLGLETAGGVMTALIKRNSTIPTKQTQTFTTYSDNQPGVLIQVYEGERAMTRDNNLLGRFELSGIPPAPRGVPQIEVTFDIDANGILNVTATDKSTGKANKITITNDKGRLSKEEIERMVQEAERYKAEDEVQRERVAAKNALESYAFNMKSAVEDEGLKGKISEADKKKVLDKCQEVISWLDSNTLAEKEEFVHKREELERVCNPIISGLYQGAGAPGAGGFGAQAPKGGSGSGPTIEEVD
UniProt P63045: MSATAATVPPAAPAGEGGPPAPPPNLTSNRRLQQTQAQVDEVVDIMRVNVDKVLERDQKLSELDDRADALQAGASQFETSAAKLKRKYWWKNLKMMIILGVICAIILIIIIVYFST
UniProt P11142: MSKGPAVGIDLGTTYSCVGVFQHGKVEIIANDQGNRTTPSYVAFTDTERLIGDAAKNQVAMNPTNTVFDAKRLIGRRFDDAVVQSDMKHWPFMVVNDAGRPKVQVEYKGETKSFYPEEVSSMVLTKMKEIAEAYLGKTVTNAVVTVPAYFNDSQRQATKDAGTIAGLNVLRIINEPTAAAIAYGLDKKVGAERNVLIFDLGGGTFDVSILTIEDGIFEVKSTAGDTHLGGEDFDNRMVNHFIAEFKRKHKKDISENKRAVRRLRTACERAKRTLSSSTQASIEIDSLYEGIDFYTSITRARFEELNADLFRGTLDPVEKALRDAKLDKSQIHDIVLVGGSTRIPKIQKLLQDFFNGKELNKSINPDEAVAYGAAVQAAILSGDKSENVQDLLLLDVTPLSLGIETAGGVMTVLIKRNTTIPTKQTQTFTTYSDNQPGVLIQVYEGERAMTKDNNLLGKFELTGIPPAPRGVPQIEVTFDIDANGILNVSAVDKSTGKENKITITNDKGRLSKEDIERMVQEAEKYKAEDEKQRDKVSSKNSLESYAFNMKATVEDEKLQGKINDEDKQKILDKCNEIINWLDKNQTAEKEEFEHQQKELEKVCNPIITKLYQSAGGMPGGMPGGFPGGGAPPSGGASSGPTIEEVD
SNAP-25 (P60881-2, form named): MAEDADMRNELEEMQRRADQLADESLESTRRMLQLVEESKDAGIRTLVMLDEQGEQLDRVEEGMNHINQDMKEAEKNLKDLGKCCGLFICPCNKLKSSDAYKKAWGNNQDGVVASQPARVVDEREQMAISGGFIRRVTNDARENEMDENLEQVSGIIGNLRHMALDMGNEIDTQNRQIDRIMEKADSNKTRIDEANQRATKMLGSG

T1: L115R CSP-V5-miniTurbo (human) (UniProt Q9H3Z4)
T1 sequence: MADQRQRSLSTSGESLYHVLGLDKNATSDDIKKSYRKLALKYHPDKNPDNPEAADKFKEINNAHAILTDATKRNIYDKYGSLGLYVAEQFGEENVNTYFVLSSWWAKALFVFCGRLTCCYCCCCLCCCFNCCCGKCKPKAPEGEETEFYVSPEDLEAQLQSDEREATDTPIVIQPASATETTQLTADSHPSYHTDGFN

T2: WT CSP-V5-miniTurbo (human) (UniProt Q9H3Z4)
T2 sequence: T1 sequence with R115L

B1: SIDT2 (protein, UniProt D3ZEH5 16-832)
chain: VESHLGALGPKNVSQKDAEFERTYADDVNSELVNIYTFNHTVTRNRTEGVRVSVNVLNKQKGAPLLFVVRQKEAVVSFQVPLILRGLYQRKYLYQKVERTLCQPPTKNESEIQFFYVDVSTLSPVNTTYQLRVNRVDNFVLRTGELFTFNTTAAQPQYFKYEFPDGVDSVIVKVTSKKAFPCSVISIQDVLCPVYDLDNNVAFIGMYQTMTKKAAITVQRKDFPSNSFYVVVVVKTEDQACGGSLPFYPFVEDEPVDQGHRQKTLSVLVSQAVTSEAYVGGMLFCLGIFLSFYLLTVLLACWENWRQRKKTLLVAIDRACPESGHPRVLADSFPGSAPYEGYNYGSFENGSGSTDGLVESTGSGDLSYSYQDRSFDPVGARPRLDSMSSVEEDDYDTLTDIDSDKNVIRTKQYLCVADLARKDKRVLRKKYQIYFWNIATIAVFYALPVVQLVITYQTVVNVTGNQDICYYNFLCAHPLGNLSAFNNILSNLGYILLGLLFLLIILQREINHNRALLRNDLYALECGIPKHFGLFYAMGTALMMEGLLSACYHVCPNYTNFQFDTSFMYMIAGLCMLKLYQKRHPDINASAYSAYACLAIVIFFSVLGVVFGKGNTAFWIVFSVIHIISTLLLSTQLYYMGRWKLDSGIFRRILHVLYTDCIRQCSGPLYTDRMVLLVMGNIINWSLAAYGLIMRPNDFASYLLAIGICNLLLYFAFYIIMKLRSGERIKLIPLLCIVCTSVVWGFALFFFFQGLSTWQKTPAESREHNRDCILLDFFDDHDIWHFLSSIAMFGSFLVLLTLDDDLDTVQRDKIYVF
B2: Arhgdia (protein, UniProt Q5XI73 1-204)
chain: MAEQEPTAEQLAQIAAENEEDEHSVNYKPPAQKSIQEIQELDKDDESLRKYKEALLGRVAVSADPNVPNVIVTRLTLVCSTAPGPLELDLTGDLESFKKQSFVLKEGVEYRIKISFRVNREIVSGMKYIQHTYRKGVKIDKTDYMVGSYGPRAEEYEFLTPMEEAPKGMLARGSYNIKSRFTDDDKTDHLSWEWNLTIKKEWKD
B3: vti1b (protein, UniProt P58200 1-232)
chain: MATSAASSEHFEKLHEIFRGLLEDLQGVPERLLGTAGTEEKKKLVRDFDEKQQEANETLAEMEEELRYAPLTFRNSMMSKLRNYRKDLAKLHREVRSTPLTATPGGRGDLKFGTYTLENEHLNRLQSQRALLLQGTESLNRATQSIERSHRIAAETDQIGSEIIEELGEQRDQLERTKSRLVNTNENLSKSRKILRSMSRKVITNKLLLSVIIVLELAILVGLVYYKFFRHH
B4: Fam129b (protein, UniProt B4F7E8 1-747)
chain: MGDVLSTHLDDARRQNIAEKTEKILREFLRFYEDQYGVSLFNSMRHEIEGTGPPQAQLLWRKVPLDERIIFSGNLFQYQEDNKKWRNRFSLVPHNYGLVLYENKVAYERQIPPRAVINSAGYKVLTSLDQYLELVGNSLPGTTSKSGSTPILKCPTQFPLILWHPYARHYYFCMMTEAEQDKWQAVLQDCVRHCNNGIPENSKVEGPAFTDAIRMYRQSKEQYGTWEMLCGNEVQILSNLVMEELGPALKTELGPRLKGKPQERQRQWIQISDAVYRLVFEQAKVHFEEVLCKLQLARPAMEAVIRTDMDQIITSKEHLASKIRAFILPKAEVCVRNHVQPYIPSILEALMVPTSQGFTEVRDVFFKEVTDMNLNVINEGGIDKLGEYMEKLSQLAYHPLKMQSCYEKMEPLRLDGLQQRFDVSSTSVFKQRAQIHMREQMDNAVYTFETLLHQELGKGPTKEELCKSIQRILERVLKKYDYDSSSVRKRFFREALLQITIPFLLKKLAPTCKSELPRFQELIFEDFARFILVENTYEEVVLQTVMKDILQAVKEAAVQRKHNLYRDSVVLHNSDPNLHLLAEGAPIDWGEQYGDGGDGSDSGGSPCPSEAATLTEKRRRAKQVVSVVQDEESGLPFEAGSEPPSPASPDNVTELRGLLAQDLQAESSPPASPLLNGAPVQESPQPMTVLEASPPASPLRHLPPGKAVDLEPPKPSDQETGEKVSSPGSRPPIHTTTEDSAGVQTEF
B5: Rab3D (protein, UniProt Q63942 1-219)
chain: MASASEPPASPRDAADQNFDYMFKLLLIGNSSVGKTSFLFRYADDSFTPAFVSTVGIDFKVKTVYRHDKRIKLQIWDTAGQERYRTITTAYYRGAMGFLLMYDIANQESFTAVQDWATQIKTYSWDNAQVILVGNKCDLEDERVVSAEDGQRLAGDLGFEFFEASAKENINVKQVFERLVDIICDKMNESLEPSSSPGSNGKGPALGDTPPPQPSSCGC
B6: Tub (protein, UniProt O88808 1-505)
chain: MTSKPHSDWIPYSVLDDEGSNLRQQKLDRQRALLEQKQKKKRQEPLMVQANADGRPRSRRARQSEEQAPLVESYLSSSGSTSYQVQEADSLASVQPGATRPPAPASAKKTKGAAASGGQGGAPRKEKKGKHKGTSGPATLAEDKSEAQGPVQILTVGQSDHAKDAGETAAGGGAQPSGQDLRATMQRKGISSSMSFDEEEDEDENSSSSSQLNSNTRPSSATSRKSTREAASAPSPAAPEPPVDIEVQDLEEFALRPAPQGITIKCRITRDKKGMDRGMYPTYFLHLDREDGKKVFLLAGRKRKKSKTSNYLISVDPTDLSRGGDSYIGKLRSNLMGTKFTVYDNGVNPQKASSSTLESGTLRQELAAVCYETNVLGFKGPRKMSVIVPGMNMVHERVCIRPRNEHETLLARWQNKNTESIIELQNKTPVWNDDTQSYVLNFHGRVTQASVKNFQIIHGNDPDYIVMQFGRVAEDVFTMDYNYPLCALQAFAIALSSFDSKLACE
B7: syntaxin-7 (protein, UniProt O70257 1-261)
chain: MSYTPGIGGDPAQLAQRISSNIQKITQCSAEIQRTLNQLGTPQDTPELRQQLQQEQQYTNQLAKETDKYIKEFGFLPTTPSEQRQRKIQKDRLVAEFTTALTNFQKVQRQAAEREKEFVARVRASSRVSGGFPEDSSKEKNFVSWESQTQPQVQVQDEEITEDDLRLIHERESSIRQLEADIMDINEIFKDLGMMIHEQGDVIDSIEANVESAEVHVQQANQQLSRAANYQRKSRKTLCIIILILVVGIVIIFFIVWGLKG
B8: Rab23 (protein, UniProt D3ZRM5 1-237)
chain: MLEEDMEVAIKMVVVGNGAVGKSSMIQRYCKGIFTKDYKKTIGVDFLERQIQVNDEDVRLMLWDTAGQEEFDAITKAYYRGAQACVLVFSTTDRESFEAISSWREKVVAEVGDIPTALVQNKIDLLDDSCIKNEEAEGLAKRLKLRFYRTSVKEDLNVNEVFKYLAEKHLQKLKQQVADEPEQTHSSSNKIGVFNASVGSHLGQNSSSLNGGDVINLRPNKQRTKKTRNPFSSCSVP

Experiments:
[1] = molecular target: T1, L115R CSP-V5-miniTurbo (human); experiment: proximity labelling; BioID in living PC12 cells stably expressing WT or L115R CSP-V5-miniTurbo; pull-down of biotinylated proteins on streptavidin beads, western blot of the bound fraction; miniTurbo control and biotin-free control
[2] = molecular target: T2, WT CSP-V5-miniTurbo (human); experiment: as above
[3] = molecular target: T1, L115R CSP-V5-miniTurbo (human); experiment: proximity labelling; BioID in living PC12 cells stably expressing WT or L115R CSP-V5-miniTurbo; 100 μM biotin overnight; RIPA lysis, streptavidin beads, on-bead tryptic digestion, LC-MS with label-free quantification, three biological repeats; compared with miniTurbo control and no biotin control
[4] = molecular target: T2, WT CSP-V5-miniTurbo (human); experiment: as above
[5] = molecular target: T1, L115R CSP-V5-miniTurbo (human); experiment: proximity labelling; BioID in living HEK293T cells transiently transfected with WT or L115R CSP-V5-miniTurbo or the miniTurbo control; biotin-affinity purification on Neutravidin beads, western blot for Hsc70
[6] = molecular target: T2, WT CSP-V5-miniTurbo (human); experiment: as above

| Molecule | binding [2] | binding [4] | further results |
| --- | --- | --- | --- |
| Hsc70 (from UniProt P0DMW0 1-641) | binds | binds | binding [1]: binds; binding [3]: binds |
| VAMP2 (from UniProt P63045 1-116) | binds | binds |  |
| Hsc70 (from UniProt P11142 1-646) |  |  | binding [5]: binds; binding [6]: binds |
| syntaxin-1 (rat (endogenous in PC12)) | binds |  |  |
| SNAP-25 (from UniProt P60881-2 1-206) | binds | binds | binding [1]: binds |
| B1 |  | binds | binding [3]: binds |
| B2 |  | binds |  |
| B3 |  | binds |  |
| B4 |  | binds |  |
| B5 |  | binds |  |
| B6 |  | binds |  |
| B7 |  | binds |  |
| B8 |  | binds |  |
